The other results are listed elsewhere or left out.
What was measured:
Experiment in all cases: log2 fold change, soluble protein after heating vs DMSO (PISA); higher = thermal stabilisation; K562 cells, 10 uM, 30 min; active = over 0.2 and 3.5 SD of the protein, either way, in both replicates (recomputed)
[1] = compound: CC1=C(C=C(C=C1)NC(=O)C2=CC(=CC=C2)C(C)(C)C#N)NC3=CC4=C(C=C3)N=CN(C4=O)C
Summary of the method: (§1)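 Soluble protein was quantified by TMTpro 16plex LC-MS/MS after channel sums were equalised. It was obtained as the supernatant after 21,000xg for 90 min from pooled aliquots of K562 cells (2×10^6 cells/mL, 10 μM compound, 30 min) heated for 3 min across 48°C-58°C and extracted in PBS with 0.5% NP-40 at 4°C. Thermal stability values are relative to control samples and come from duplicates. They are given as log2 fold changes.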

Protein sequences, listed by entry. Tags and fused reporters are not part of them. Lines headed by an entry give the natural chain unless they say otherwise; changes in a name come on top.
UniProt Q86SZ2: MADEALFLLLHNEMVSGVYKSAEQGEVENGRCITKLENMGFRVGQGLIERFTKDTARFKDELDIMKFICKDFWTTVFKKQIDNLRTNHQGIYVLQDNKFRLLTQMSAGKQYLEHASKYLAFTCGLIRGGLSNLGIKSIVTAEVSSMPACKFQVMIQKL
UniProt O14787: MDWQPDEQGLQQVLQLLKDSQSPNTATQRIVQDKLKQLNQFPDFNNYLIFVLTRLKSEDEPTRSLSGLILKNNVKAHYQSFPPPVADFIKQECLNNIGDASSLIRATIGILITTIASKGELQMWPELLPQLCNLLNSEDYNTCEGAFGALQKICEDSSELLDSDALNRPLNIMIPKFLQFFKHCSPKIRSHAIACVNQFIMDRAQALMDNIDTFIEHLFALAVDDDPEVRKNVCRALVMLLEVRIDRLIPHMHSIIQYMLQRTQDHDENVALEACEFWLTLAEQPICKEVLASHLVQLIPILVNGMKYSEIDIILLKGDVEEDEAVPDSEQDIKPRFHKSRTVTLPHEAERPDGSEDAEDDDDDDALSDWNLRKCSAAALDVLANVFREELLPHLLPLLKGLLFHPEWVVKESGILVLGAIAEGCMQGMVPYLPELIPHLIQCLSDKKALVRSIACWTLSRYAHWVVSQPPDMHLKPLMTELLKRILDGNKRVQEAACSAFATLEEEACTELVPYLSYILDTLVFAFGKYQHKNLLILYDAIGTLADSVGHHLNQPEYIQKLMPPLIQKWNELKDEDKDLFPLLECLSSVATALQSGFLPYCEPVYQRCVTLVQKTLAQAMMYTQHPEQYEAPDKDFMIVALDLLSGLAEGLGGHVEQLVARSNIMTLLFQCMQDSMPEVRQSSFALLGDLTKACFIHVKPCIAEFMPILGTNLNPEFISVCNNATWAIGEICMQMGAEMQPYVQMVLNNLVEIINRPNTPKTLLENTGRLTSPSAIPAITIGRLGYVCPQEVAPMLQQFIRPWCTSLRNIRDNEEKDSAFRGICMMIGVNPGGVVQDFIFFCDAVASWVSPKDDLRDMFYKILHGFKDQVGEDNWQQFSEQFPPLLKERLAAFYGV
UniProt Q9Y2L5: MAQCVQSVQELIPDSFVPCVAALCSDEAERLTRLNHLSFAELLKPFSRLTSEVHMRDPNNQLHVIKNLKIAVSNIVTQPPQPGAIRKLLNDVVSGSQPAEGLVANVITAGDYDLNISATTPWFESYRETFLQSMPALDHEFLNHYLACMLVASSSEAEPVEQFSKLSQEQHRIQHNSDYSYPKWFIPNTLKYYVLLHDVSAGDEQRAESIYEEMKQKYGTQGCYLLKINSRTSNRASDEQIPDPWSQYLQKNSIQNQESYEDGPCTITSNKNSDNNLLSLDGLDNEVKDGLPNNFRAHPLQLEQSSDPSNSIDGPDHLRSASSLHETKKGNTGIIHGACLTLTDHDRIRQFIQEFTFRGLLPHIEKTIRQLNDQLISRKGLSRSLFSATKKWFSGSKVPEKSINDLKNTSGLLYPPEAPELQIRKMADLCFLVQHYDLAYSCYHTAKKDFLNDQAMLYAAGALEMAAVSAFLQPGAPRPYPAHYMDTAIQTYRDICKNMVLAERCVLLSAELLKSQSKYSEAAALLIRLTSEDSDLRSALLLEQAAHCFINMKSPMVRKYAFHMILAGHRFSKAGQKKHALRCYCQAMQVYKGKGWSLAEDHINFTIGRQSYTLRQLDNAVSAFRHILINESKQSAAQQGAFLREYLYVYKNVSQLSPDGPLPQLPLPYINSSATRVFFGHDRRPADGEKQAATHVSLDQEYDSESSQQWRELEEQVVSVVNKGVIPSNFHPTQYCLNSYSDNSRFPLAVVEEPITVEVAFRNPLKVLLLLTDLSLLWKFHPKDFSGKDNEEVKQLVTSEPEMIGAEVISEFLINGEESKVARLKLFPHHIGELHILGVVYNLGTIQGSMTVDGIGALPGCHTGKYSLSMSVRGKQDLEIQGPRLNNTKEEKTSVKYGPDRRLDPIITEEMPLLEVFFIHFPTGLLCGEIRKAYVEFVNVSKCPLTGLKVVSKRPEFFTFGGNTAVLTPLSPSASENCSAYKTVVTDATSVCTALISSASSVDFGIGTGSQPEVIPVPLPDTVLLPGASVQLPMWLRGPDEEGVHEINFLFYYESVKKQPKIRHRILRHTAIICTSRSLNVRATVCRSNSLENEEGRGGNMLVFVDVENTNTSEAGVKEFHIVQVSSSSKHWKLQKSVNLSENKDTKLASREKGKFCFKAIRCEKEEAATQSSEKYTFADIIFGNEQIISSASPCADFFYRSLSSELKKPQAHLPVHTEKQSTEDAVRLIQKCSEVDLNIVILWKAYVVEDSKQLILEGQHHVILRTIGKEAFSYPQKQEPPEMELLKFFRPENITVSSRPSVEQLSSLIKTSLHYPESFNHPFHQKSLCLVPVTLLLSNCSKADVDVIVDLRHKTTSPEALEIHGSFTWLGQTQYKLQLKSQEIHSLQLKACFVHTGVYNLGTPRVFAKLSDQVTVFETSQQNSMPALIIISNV
UniProt O14657: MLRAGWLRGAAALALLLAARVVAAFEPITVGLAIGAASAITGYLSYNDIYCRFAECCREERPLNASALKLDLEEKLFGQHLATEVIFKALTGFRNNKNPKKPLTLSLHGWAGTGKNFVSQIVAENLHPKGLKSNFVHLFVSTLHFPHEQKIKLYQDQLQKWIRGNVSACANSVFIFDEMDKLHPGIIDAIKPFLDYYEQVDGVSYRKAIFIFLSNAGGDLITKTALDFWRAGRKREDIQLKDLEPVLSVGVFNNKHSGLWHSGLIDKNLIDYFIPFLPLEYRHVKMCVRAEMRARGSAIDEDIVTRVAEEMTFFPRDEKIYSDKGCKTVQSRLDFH
UniProt Q8IZ69: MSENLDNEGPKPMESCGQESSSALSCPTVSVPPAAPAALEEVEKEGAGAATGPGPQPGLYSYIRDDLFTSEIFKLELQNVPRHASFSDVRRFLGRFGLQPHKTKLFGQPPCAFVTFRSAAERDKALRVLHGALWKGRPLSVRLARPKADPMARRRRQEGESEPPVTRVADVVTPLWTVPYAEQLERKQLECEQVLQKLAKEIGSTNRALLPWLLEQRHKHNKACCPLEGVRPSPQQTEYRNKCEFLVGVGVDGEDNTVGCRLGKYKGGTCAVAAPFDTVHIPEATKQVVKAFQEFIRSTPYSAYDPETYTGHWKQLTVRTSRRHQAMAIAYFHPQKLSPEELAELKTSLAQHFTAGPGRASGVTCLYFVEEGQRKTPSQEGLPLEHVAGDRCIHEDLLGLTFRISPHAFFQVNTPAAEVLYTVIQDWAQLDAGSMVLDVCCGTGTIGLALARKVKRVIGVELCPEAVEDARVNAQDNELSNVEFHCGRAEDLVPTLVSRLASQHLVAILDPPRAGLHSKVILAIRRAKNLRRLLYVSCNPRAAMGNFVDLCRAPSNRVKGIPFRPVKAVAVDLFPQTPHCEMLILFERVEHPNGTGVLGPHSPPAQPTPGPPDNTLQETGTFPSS
UniProt O15164: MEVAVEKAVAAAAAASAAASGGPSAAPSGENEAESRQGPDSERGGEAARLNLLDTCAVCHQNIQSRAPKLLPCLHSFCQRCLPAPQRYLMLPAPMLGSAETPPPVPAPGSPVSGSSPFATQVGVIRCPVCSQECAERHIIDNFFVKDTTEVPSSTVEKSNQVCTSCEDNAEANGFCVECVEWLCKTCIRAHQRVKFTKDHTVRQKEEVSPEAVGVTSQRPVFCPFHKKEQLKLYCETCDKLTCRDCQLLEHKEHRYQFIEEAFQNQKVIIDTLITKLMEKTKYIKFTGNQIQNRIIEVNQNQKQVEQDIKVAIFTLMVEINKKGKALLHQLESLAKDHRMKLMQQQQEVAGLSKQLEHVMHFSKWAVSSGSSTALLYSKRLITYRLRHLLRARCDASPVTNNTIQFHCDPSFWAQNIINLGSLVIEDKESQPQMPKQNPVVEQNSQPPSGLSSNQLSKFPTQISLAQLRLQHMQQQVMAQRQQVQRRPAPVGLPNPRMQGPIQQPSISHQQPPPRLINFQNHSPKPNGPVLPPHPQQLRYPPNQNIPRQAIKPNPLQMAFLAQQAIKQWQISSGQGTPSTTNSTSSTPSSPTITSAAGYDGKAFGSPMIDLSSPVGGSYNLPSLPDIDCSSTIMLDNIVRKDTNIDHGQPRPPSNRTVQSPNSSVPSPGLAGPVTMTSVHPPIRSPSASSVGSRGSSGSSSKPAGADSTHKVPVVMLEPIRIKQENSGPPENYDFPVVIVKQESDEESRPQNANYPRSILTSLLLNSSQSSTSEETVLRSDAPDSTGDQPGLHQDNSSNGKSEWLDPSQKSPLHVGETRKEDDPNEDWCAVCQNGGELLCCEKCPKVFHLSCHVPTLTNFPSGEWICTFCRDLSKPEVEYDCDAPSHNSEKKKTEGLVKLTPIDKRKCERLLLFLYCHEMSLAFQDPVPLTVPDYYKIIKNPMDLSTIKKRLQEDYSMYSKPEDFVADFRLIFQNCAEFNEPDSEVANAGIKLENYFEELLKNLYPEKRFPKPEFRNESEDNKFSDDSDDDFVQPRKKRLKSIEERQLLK
UniProt O43617, whole entry, looked up: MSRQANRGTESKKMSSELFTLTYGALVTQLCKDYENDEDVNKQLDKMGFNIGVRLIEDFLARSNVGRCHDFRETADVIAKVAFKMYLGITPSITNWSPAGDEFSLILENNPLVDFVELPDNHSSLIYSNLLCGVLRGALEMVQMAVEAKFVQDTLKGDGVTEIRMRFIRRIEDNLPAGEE
UniProt P11388: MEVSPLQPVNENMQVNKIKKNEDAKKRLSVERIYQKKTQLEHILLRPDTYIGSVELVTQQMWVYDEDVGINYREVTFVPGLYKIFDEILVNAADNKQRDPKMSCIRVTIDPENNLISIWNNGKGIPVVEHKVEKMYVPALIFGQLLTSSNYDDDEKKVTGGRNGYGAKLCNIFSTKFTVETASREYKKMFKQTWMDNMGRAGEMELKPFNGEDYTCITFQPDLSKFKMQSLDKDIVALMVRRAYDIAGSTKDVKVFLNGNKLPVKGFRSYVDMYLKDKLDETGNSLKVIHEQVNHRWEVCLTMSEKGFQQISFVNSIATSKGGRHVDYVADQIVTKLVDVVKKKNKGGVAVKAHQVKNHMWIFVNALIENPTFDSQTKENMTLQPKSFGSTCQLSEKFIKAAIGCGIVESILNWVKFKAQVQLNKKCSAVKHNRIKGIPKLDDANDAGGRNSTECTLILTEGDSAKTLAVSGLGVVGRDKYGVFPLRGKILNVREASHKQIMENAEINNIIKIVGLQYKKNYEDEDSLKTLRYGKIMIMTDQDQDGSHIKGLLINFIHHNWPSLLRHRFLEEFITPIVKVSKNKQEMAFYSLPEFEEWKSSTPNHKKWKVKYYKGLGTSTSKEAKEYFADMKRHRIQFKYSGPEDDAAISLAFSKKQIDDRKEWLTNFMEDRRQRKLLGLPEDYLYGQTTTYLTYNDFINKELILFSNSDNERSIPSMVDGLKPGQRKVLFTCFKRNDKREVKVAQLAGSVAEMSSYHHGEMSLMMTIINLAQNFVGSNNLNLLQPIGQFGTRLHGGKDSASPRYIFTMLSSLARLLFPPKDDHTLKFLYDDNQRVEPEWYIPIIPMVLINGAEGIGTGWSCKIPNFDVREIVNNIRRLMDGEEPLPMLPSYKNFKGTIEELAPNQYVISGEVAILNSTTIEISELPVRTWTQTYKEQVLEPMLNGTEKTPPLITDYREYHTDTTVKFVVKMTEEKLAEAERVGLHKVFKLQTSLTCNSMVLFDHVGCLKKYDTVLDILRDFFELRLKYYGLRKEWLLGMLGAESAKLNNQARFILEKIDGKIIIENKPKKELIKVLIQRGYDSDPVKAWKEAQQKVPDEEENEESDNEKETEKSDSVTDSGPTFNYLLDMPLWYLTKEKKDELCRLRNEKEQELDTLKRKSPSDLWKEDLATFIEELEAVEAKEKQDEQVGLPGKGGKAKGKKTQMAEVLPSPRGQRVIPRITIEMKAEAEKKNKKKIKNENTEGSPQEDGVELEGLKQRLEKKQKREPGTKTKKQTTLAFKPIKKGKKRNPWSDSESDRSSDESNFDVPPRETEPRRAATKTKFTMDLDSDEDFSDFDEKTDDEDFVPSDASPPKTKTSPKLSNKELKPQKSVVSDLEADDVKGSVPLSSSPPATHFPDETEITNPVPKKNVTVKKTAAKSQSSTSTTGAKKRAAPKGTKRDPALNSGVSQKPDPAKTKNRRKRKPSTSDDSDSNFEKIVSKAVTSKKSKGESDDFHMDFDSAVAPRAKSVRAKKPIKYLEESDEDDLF

[2] = compound: CC1=C(C=C(C=C1)NC(=O)C2=CC(=CC=C2)N(C)C)NC(=O)C3=CC=C(C=C3)O
Summary of the method: as §1

[3] = compound: CC1=CC=C(C=C1)SC2=C3C=C(SC3=CN=C2)C(=O)N
Summary of the method: as §1

[4] = compound: CC1=NC(=CC=C1)C2=C(N=C(N2)C(C)(C)C)C3=CC4=NC=CN=C4C=C3
Summary of the method: as §1

Nexturastat A = compound: CCCCN(Cc1ccc(C(=O)NO)cc1)C(=O)Nc1ccccc1 [Nexturastat A]
Summary of the method: as §1

vemurafenib = compound: CCCS(=O)(=O)Nc1ccc(F)c(C(=O)c2c[nH]c3ncc(-c4ccc(Cl)cc4)cc23)c1F [vemurafenib]
Summary of the method: as §1

[5] = compound: CCCS(=O)(=O)Nc1ccc(F)c(C(=O)c2c[nH]c3ncc(Cl)cc23)c1F
Summary of the method: as §1

[6] = compound: CCCc1cc(C)[nH]c(=O)c1CNC(=O)c1cc(-c2ccnc(N3CCN(C)CC3)c2)cc2c1cnn2C(C)C
Summary of the method: as §1

givinostat = compound: CCN(CC)Cc1ccc2cc(COC(=O)Nc3ccc(C(=O)NO)cc3)ccc2c1 [givinostat]
Summary of the method: as §1

barasertib = compound: CCN(CCCOc1ccc2c(Nc3cc(CC(=O)Nc4cccc(F)c4)[nH]n3)ncnc2c1)CCOP(=O)(O)O [barasertib]
Summary of the method: as §1

[7] = compound: CC[C@@H]1C(=O)N(C)c2cnc(Nc3ccc(C(=O)NC4CCN(C)CC4)cc3OC)nc2N1C1CCCC1
Summary of the method: as §1

volasertib = compound: CC[C@@H]1C(=O)N(C)c2cnc(Nc3ccc(C(=O)N[C@H]4CC[C@H](N5CCN(CC6CC6)CC5)CC4)cc3OC)nc2N1C(C)C [volasertib]
Summary of the method: as §1

[8] = compound: CC[C@H](C)N1C=C(C2=C(C=C(C=C21)C3=CN=C(C=C3)N4CCNCC4)C(=O)NCC5=C(C=C(NC5=O)C)C)C
Summary of the method: as §1

epoxomicin = compound: CC[C@H](C)[C@@H](C(=O)N[C@@H]([C@@H](C)O)C(=O)N[C@@H](CC(C)C)C(=O)[C@]1(CO1)C)NC(=O)[C@H]([C@@H](C)CC)N(C)C(=O)C [epoxomicin]
Summary of the method: as §1

[9] = compound: CCn1cc(-c2ccnc3[nH]c(-c4cccc(CN(C)C)c4)cc23)c(-c2ccc(NC(=O)N(C)C)cc2)n1
Summary of the method: as §1

[10] = compound: CN(C)CC(=O)Nc1ccc2[nH]c(=O)c3ccccc3c2c1
Summary of the method: as §1

[11] = compound: CN1C2=C(C3=C1C(=O)N(N=C3)CC4=CC(=CC=C4)N)SC(=C2)S(=O)C
Summary of the method: as §1

[12] = compound: CN1CCC(CNc2ccc3ncc(-c4cccc(OC(F)(F)F)c4)n3n2)CC1
Summary of the method: as §1

[13] = compound: CCn1c(C(=O)N(C2CC2)C2CC2)cc2c3c(ncn3C)c(Nc3cc(C)n(C)n3)nc21
Summary of the method: as §1

rosiglitazone = compound: CN(CCOC1=CC=C(C=C1)C[C@H]2C(=O)NC(=O)S2)C3=CC=CC=N3 (racemic) [rosiglitazone]
Summary of the method: as §1

Measured: log2 fold change

TRAPPC6B (UniProt Q86SZ2)
inactive: [1] 0.022 | [2] -0.01 | [3] 0.049 | [4] 0.07 | Nexturastat A -0.097 | vemurafenib 0.009 | [5] 0.02 | [6] -0.063 | givinostat -0.02 | barasertib 0.008 | [7] -0.015 | volasertib -0.002 | [8] -0.011 | epoxomicin 0.146 | [9] -0.05 | [10] -0.01 | [11] -0.026 | [12] -0.08

TNPO2 (UniProt O14787)
active: volasertib -0.36
inactive: [1] 0.052 | [2] -0.01 | [3] 0.073 | [4] 0.015 | Nexturastat A 0.021 | vemurafenib 0.061 | [5] 0.11 | [6] 0.007 | givinostat 0.083 | barasertib 0.054 | [7] -0.176 | [8] 0.106 | epoxomicin 0.029 | [9] -0.027 | [10] 0.111 | [11] 0.016 | [12] 0.06

TPP2 (UniProt Q5VZU9)
inactive: [1] 0.027 | [2] -0.163 | [3] -0.118 | [4] -0.091 | Nexturastat A 0.27 | vemurafenib -0.181 | [5] -0.152 | [6] 0.092 | givinostat 0.158 | barasertib 0.004 | [7] 0.154 | volasertib 0.31 | [8] 0.104 | epoxomicin 0.041 | [13] -0.144 | [10] -0.012 | rosiglitazone -0.082 | [11] 0.163

TRAPPC8 (UniProt Q9Y2L5)
inactive: [1] 0.079 | [2] -0.036 | [3] -0.009 | [4] -0.022 | Nexturastat A 0.024 | vemurafenib 0.026 | [5] 0.066 | [6] 0.012 | givinostat 0.066 | barasertib 0.033 | [7] -0.092 | [8] 0.077 | epoxomicin 0.033 | [9] -0.073 | [10] 0.015 | [11] 0.04 | [12] -0.099
active: volasertib -0.287

TOR1B (UniProt O14657)
inactive: [1] -0.053 | [2] -0.015 | [3] -0.001 | [4] -0.028 | Nexturastat A -0.006 | vemurafenib -0.03 | [5] -0.035 | [6] -0.066 | givinostat 0.025 | barasertib -0.013 | [7] 0.027 | volasertib 0.014 | [8] 0.03 | epoxomicin -0.02 | [13] 0.04 | [9] 0.032 | [10] -0.039 | rosiglitazone 0.009 | [11] 0.057 | [12] 0.002

TRMT2A (UniProt Q8IZ69)
inactive: [1] 0.083 | [2] -0.02 | [3] -0.009 | [4] 0.005 | Nexturastat A 0.013 | vemurafenib 0.022 | [5] -0.032 | [6] 0.085 | givinostat -0.123 | barasertib -0.003 | [7] 0.01 | volasertib 0.016 | [8] 0.044 | epoxomicin -0.083 | [9] -0.003 | [10] 0.034 | [11] 0.1 | [12] -0.198

TRIM24 (UniProt O15164)
inactive: [1] 0.011 | [2] -0.039 | [3] 0.003 | [4] -0.074 | Nexturastat A -0.241 | vemurafenib -0.009 | [5] -0.11 | [6] 0.067 | givinostat 0.019 | barasertib 0.061 | [7] -0.199 | volasertib -0.234 | [8] 0.068 | epoxomicin 0.321 | [13] -0.032 | [9] 0.026 | [10] 0.2 | rosiglitazone 0.065 | [11] 0.099 | [12] -0.089

TRAPPC3 (UniProt O43617)
inactive: [1] 0 | [2] 0.023 | [3] 0.061 | [4] 0.042 | vemurafenib 0.023 | [5] 0.01 | [6] -0.006 | givinostat -0.051 | barasertib 0.025 | [7] -0.019 | volasertib -0.118 | [8] -0.02 | epoxomicin -0.029 | [9] 0.04 | [10] -0.016 | [11] -0.051 | [12] -0.059
active: Nexturastat A -0.218

TOP2A isoform 4 (UniProt P11388)
inactive: [1] 0.081 | [2] -0.006 | [3] -0.083 | [4] -0.094 | Nexturastat A 0.234 | vemurafenib -0.213 | [5] 0.042 | [6] 0.182 | givinostat 0.207 | barasertib -0.054 | [7] 0.198 | volasertib 0.226 | [8] 0.106 | epoxomicin -0.231 | [9] 0.156 | [10] -0.194 | [11] 0.526 | [12] 0.128
